Changes are numbered by the printed parent chain. Numbers in names are those of the source. These are yes or no findings as the source states them, for the method shown. Some binding calls cover weakened binding; strength is not graded here. For some assays here: Tags and fused reporters may be left off the sequences shown. One block for each binder: values may come before it.
Assays:
[1] = target: PDL1-muFc fusion protein (using mouse Fc) (UniProt Q9NZQ7); test: competitive ELISA, PDL1-muFc coated, excess PD1-Fc present, anti-his-HRP detection
[2] = target: T1, PDL1-Fc fusion protein (human, UniProt Q9NZQ7 19-238, limits assumed); test: ELISA, PDL1-Fc coated at 0.5 ug/well, anti-his-HRP detection
T1 construct: Transiently expressed in HEK293 and used as the plate coat in the ELISAs; not shown: Fc part

Sequences of proteins named here, by UniProt entry; tags and fusion partners are left off. A change or cut given only in a name is not applied to a line headed by its entry.
UniProt Q9NZQ7: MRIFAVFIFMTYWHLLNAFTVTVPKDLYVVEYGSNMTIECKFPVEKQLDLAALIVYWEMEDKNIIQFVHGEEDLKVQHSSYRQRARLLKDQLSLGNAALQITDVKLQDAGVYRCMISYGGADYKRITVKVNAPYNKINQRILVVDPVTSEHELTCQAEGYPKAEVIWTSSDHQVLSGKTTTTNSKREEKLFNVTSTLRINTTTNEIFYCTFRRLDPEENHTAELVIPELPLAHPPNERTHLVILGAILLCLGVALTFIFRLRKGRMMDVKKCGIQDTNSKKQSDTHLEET

[3] = target: PDL1-muFc fusion protein (using mouse Fc) (UniProt Q9NZQ7); test: competitive ELISA on coated PDL1-muFc with excess PD1-Fc (10 ug per well) present, rising 109-chis, detection anti-his-HRP, OD405
[4] = target: PD-L1 target protein (Biacore ligand) (UniProt Q9NZQ7); test: SPR (Biacore T200)

B2: 109 heavy-chain single domain antibody (VHH)
VHH: QVQLQESGGGSVQAGGSLRLSCTASGFSLDDSDMGWYRQARGNVCQLVSTIASDRSTYYTPSVKGRFTISHDRAKNTIYLQMNSLKPEDTAVYYCAAAPRLAYTTAMTCEGDFAYWGQGTQVTVSS
notes: Untagged form
binding [4]: binds

B6: 109-K64Q-cHis (VHH)
VHH: B2 VHH with K64Q
binding [2]: binds

Second part, the binder after the results:

binding [1]: binds | binding [2]: binds | binding [3]: binds
B1: 109-chis (VHH)
VHH: B2 VHH

binding [2]: binds
B3: 109-R73N&K75E-cHis (VHH)
VHH: B2 VHH with R73N, K75E

binding [2]: binds
B4: 109-RDNSE-cHis (VHH)
VHH: B2 VHH with H71R, R73N, A74S, K75E

binding [2]: binds
B5: 109-K86R&P87A-cHis (VHH)
VHH: B2 VHH with K86R, P87A

From patent publication US20210253709A1 (SUZHOU SMARTNUCLIDE BIOPHARMACEUTICAL, published 2021)
